From patent publication US20030087394 come the findings set out here.

Protein sequences, listed by entry. Tags and fused reporters are not part of them.
UniProt A0A1U7RCQ9, entry or part of it: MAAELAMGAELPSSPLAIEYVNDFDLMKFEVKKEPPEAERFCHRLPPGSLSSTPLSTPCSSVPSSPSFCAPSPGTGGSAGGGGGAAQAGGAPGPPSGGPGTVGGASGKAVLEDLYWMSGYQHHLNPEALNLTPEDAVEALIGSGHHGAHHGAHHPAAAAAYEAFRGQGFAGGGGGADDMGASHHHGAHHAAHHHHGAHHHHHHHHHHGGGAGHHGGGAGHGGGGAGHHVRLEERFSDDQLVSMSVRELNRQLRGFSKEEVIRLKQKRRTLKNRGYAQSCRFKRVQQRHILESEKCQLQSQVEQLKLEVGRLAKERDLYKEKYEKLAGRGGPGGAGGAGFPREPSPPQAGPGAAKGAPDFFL

Series [1] has as its target RIPE3b1 factor (endogenous mMafA) (UniProt A0A1U7RCQ9). The experiment in a line: competition with a labelled probe. Particulars: 50-fold excess, protein in an extract, protein details: HIT T-15 nuclear extract.
For series [2], the system named is RIPE3b2 factor (small Maf, MafF/G/K). The experiment in a line: competition with a labelled probe. Particulars: 50-fold excess, protein in an extract, protein details: HIT T-15 nuclear extract.
Setting [3] is: variant of alphaA-crystallin Maf site wild type.

Results from cells or extracts need not show a direct contact. A negative result means that nothing was seen under these conditions. For some of these results: Construct, isoform or probe ends are uncertain for at least one entry.

Turning to “ACGTAGCATTCCAGCTGCTGCCGGTGCAGCCTCTCCCCCGAG (double strand) [alphaA-crystallin Maf site mutant]”, the binding result in series [1] (setting [3]) and in series [2] (setting [3]) was “no binding” throughout.
“ACGTAGCATTCCAGCTGCTGACGGTGCAGCCTCTCCCCCGAG (double strand) [alphaA-crystallin Maf site wild type]”: the binding result in series [1] (also bound as probe) and in series [2] was “binds” each time.
